Results deposited as PubChem BioAssay AID1508588 (Peter MacCallum Cancer Centre, 2020)
Here is an unselected part of about 18,000 reagents tested. 790 of all reagents (4.4%) count as active. 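Calls rest on a combination of fold-change classes in drug and vehicle arms, not all shown here.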 A reagent listed more than once was tested more than once; the source does not tell the runs apart. Reagent sequences are not shown.

- Test: 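Which gene losses make BRAF-mutant melanoma cells more responsive to vemurafenib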 (primary screen)
- Cell system: human WM266.4 melanoma cells (BRAF V600 mutant)
- Reagents: siRNA pool against human genes, 40 nM
- Timing: 96 h from transfection to read-out
- Challenge: vemurafenib 300 nM (about IC25), added 48 h after transfection, for 48 h; comparison arm got DMSO vehicle only
- Measured: 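Ratios to non-targeting siRNA for cell gain, counted as DAPI nuclei after minus before drug and averaged over two replicates, and for absorbance-read medium lactate per cell; both binned into fold-change classes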
- Direction: cell gain with vemurafenib: higher = more cell gain than with non-targeting siRNA; lactate per cell with vemurafenib: higher = more lactate made per cell
- Active means: 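a knock-down counts as enhancing when its fold-change classes with vehicle and with vemurafenib, taken together, show a stronger drug effect on cell gain or lactate per cell; exact class pairs not stated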
- Calls: active = enhances vemurafenib effect; inactive = no enhancement seen

target gene	cell gain with vemurafenib	lactate per cell with vemurafenib	activity call
COL1A1	0.59	0.78	inactive
PTPN22	0.38	0.54	inactive
CLK2	0.49	0.73	inactive
MUSK	0.3	0.86	inactive
INIP	0.62	1.42	inactive
CT47A10	0.95	0.39	inactive
KICS2	1.03	1.21	inactive
AKAP3	0.59	1.04	inactive
CYP26B1	1.09	1.06	inactive
ZNF615	0.85	0.32	inactive
TLX3	0.52	0.96	inactive
ZNG1A	0.53	2.43	inactive
TM4SF20	0.43	0.17	active
PCCA	0.64	1.16	inactive
OR2L8	0.51	0.99	inactive
OGG1	0.76	0.64	inactive
EGLN1	0.39	1.56	inactive
TEX13B	0.53	0.29	inactive
ANKRD45	0.72	1.36	inactive
FHDC1	0.59	0.68	inactive
RPL14	-0.1	1.38	inactive
CD1D	0	0.65	inactive
HDAC5	0.47	0.84	inactive
CEACAM16	0.48	1.11	inactive
OR4K5	0.44	0.52	inactive
NUP107	0.32	2.55	inactive
ARX	0.62	0.89	inactive
TOPORS	1.04	0.64	inactive
OR2T35	1.04	0.32	inactive
PMAIP1	0.65	0.82	inactive
TMBIM6	0.66	0.62	inactive
TRMT10C	1.06	0.8	inactive
TMEM74B	0.54	1.4	inactive
ABCC10	0.26	2.58	inactive
RBM45	0.94	0.55	inactive
KPNA3	0.84	0.58	inactive
CENPQ	1.02	0.18	active
OR10A7	0.66	1.54	inactive

Sorted by “lactate per cell with vemurafenib” (ascending): some entries from above
target gene	cell gain with vemurafenib	lactate per cell with vemurafenib	activity call
ZNF615	0.85	0.32	inactive
CT47A10	0.95	0.39	inactive
CLK2	0.49	0.73	inactive
MUSK	0.3	0.86	inactive
TLX3	0.52	0.96	inactive
AKAP3	0.59	1.04	inactive
CYP26B1	1.09	1.06	inactive
KICS2	1.03	1.21	inactive
INIP	0.62	1.42	inactive

Next records:
target gene	cell gain with vemurafenib	lactate per cell with vemurafenib	activity call
CCDC80	1.15	0.62	inactive
RPN2	0.1	2.21	inactive
SLK	0.38	1.68	inactive
RBM46	0.48	1.19	inactive
SUSD3	0.44	0.92	inactive
MICOS10	0.05	2.51	inactive
CGREF1	0.33	1.2	inactive
RNF13	1.07	0.35	inactive
RNF13	1.03	0.89	inactive
PSMD13	0.12	2.83	inactive
ZER1	0.7	1.08	inactive
CRLS1	0.53	1.34	inactive
GPX6	0.5	0.44	inactive
CCDC88A	0.46	1.37	inactive
SPATA31E1	0.71	0.02	active
RPS27L	0.73	0.84	inactive
FKBP1B	0.27	0.47	active
NANP	0.17	1.08	inactive
OR5B21	0.65	1.33	inactive
CCDC136	0.74	0.56	inactive
PRAMEF12	0.47	0.79	inactive
GATAD2A	1.07	0.52	inactive
CSNK2A2	0.58	0.35	active
OR56A1	0.16	2.94	inactive
PTCD3	0.61	0.61	inactive
DDRGK1	0.9	0.84	inactive
SEMA6C	0.57	0.87	inactive
ZCCHC9	0.55	0.83	inactive
KIFBP	0.44	0.92	inactive
SLC22A12	0.88	0.83	inactive
NMU	0.57	0.77	inactive
IYD	1.02	0.64	inactive
CCDC142	0.64	0.62	inactive
STX17	0.51	0.89	inactive
JAK3	0.66	1	inactive
NOSIP	0.48	1.22	inactive
OSBPL10	0.74	1.19	inactive
RBBP6	0.74	1.06	inactive
DEFB134	0.32	1.38	inactive
RERG	1.15	0.6	inactive
OR3A4P	0.62	0.3	inactive
HEMK2	0.78	0.85	inactive
LRFN2	0.11	0.31	active
ATG14	0.81	1.02	inactive
COL9A2	0.15	0.78	inactive
PRKAR1B	-0.08	2.47	inactive
